Inconclusive results, whose numbers are uncertain, are shown with a selection of clear calls. Potencies of inconclusive entries are doubtful fits and often do not repeat. Activity calls are given as the source filed them. Calls follow the shape of the dose curve; as a rule, active = well fitted cell-killing curve with a large enough effect; inconclusive = small, poorly fitted or top-dose-only effect, or effect the other way; inactive = no such curve, though single readings can be large or run the other way.
Assays:
[1] = Quantitative High-Throughput drug screen in 47 multiple myeloma cell lines against the NCATS MIPE library collection: L363_DSMZ cell viability assay (AID 1918984); conditions: L363 myeloma viability, CellTiter-Glo ATP luminescence, 48 h; viability (% of control): at 45.8 µM (top of the series); also: nearly all actives have a fitted effect of over 40% in size
Summary of the method: (§1)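 ATP-based CellTiter-Glo luminescence after 48 h drug exposure (37 °C, 5% CO2) of 500 myeloma cells per well. DMSO-only wells set 100% viability, media-only wells 0%; MIPE 4.0 library added by pin tool.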

[2] = Quantitative High-Throughput drug screen in 47 multiple myeloma cell lines against the NCATS MIPE library collection: KMS34_JCRB cell viability assay (AID 1918985); conditions: KMS34 myeloma viability, CellTiter-Glo ATP luminescence, 48 h; viability, percent of control: at 45.8 µM (top of the series); also: nearly all actives have a fitted effect of over 40% in size
Summary of the method: as §1

[3] = Quantitative High-Throughput drug screen in 47 multiple myeloma cell lines against the NCATS MIPE library collection: OCIMY7_PLB cell viability assay (AID 1918987); conditions: OCI-MY7 myeloma viability, CellTiter-Glo ATP, 48 h; viability (% of DMSO): at 45.8 µM (top of the series); also: nearly all actives have a fitted effect of over 65% in size
Summary of the method: as §1

[4] = Quantitative High-Throughput drug screen in 47 multiple myeloma cell lines against the NCATS MIPE library collection: OCIMY5_PLB cell viability assay (AID 1918988); conditions: OCI-MY5 myeloma viability, ATP luminescence, 48 h; viability, % of control: at 45.8 µM (top of the series); also: nearly all actives have a fitted effect of over 65% in size;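 as to viability, % of control: 100% = DMSO-treated wells and 0% = wells with media alone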
Summary of the method: as §1

[5] = Quantitative High-Throughput drug screen in 47 multiple myeloma cell lines against the NCATS MIPE library collection: OPM1_PLB cell viability assay (AID 1918989); also: nearly all actives have a fitted effect of over 40% in size
Summary of the method: as §1

[6] = Quantitative High-Throughput drug screen in 47 multiple myeloma cell lines against the NCATS MIPE library collection: U266_ATCC cell viability assay (AID 1919864); also: nearly all actives have a fitted effect of over 35% in size
Summary of the method: as §1

[7] = Quantitative High-Throughput drug screen in 47 multiple myeloma cell lines against the NCATS MIPE library collection: XG6_PLB cell viability assay (AID 1919865); conditions: XG6 myeloma viability, CellTiter-Glo ATP luminescence, 48 h; viability (% of control): at 45.8 µM (top of the series); also: nearly all actives have a fitted effect of over 40% in size
Summary of the method: as §1

[8] = Quantitative High-Throughput drug screen in 47 multiple myeloma cell lines against the NCATS MIPE library collection: XG1_PLB cell viability assay (AID 1919866); also: nearly all actives have a fitted effect of over 35% in size
Summary of the method: as §1

[9] = Quantitative High-Throughput drug screen in 47 multiple myeloma cell lines against the NCATS MIPE library collection: VP6_DJ cell viability assay (AID 1919867); conditions: ATP luminescence, 48 h; viability (% of DMSO): at 45.8 µM (top of the series); also: nearly all actives have a fitted effect of over 40% in size
Summary of the method: as §1

[10] = Quantitative High-Throughput drug screen in 47 multiple myeloma cell lines against the NCATS MIPE library collection: SKMM1_PLB cell viability assay (AID 1919863); conditions: SKMM1 myeloma viability, CellTiter-Glo ATP, 48 h; viability: active compounds read low; also: nearly all actives have a fitted effect of over 35% in size
Summary of the method: as §1
Potency is read from the fitted curve at half-maximal effect.

C[C@]12CC[C@H](O)CC1=CC[C@@H]1[C@H]2CC[C@]2(C)C(c3cccnc3)=CC[C@H]12
inconclusive: Potency [3] 7.24 µM [cytotoxic, partial curve, poor fit] | Potency [5] 11.5 µM [cytotoxic, partial curve, poor fit]
inactive: Potency [1] | Potency [2] | Potency [4] | Potency [6]

O=C(O)[C@H]1O[C@H](Oc2cc3oc(-c4ccccc4)cc(=O)c3c(O)c2O)[C@H](O)[C@@H](O)[C@H]1O
inactive: Potency [1] | Potency [7] | Potency [9]
active: Potency [4] 23.5 µM | Potency [5] 18.7 µM
inconclusive: Potency [2] 13.2 µM [cytotoxic, partial curve, poor fit] | Potency [3] 6.62 µM [cytotoxic, partial curve, poor fit] | Potency [6] 16.6 µM [cytotoxic, partial curve, poor fit] | Potency [8] 23.5 µM [cytotoxic, single point]

C[C@H]1C[C@@H]2[C@@H]([C@@H](O)C[C@@]3(C)[C@H]2CC[C@]3(O)C(=O)CO)[C@@]2(C)C=CC(=O)C=C12
inactive: Potency [2] | Potency [5] | viability [10] 112% | Potency [6]
inconclusive: Potency [1] 2.96 µM [cytotoxic, partial curve, poor fit] | Potency [3] 0.0019 µM [rising, full curve, poor fit] | Potency [4] 0.0833 µM [cytotoxic, full curve, poor fit] | Potency [9] 6.62 µM [cytotoxic, partial curve, poor fit]

Quoted from the results shown, two compounds:
C[C@]12CC[C@H](O)CC1=CC[C@@H]1[C@H]2CC[C@]2(C)C(c3cccnc3)=CC[C@H]12
inconclusive: Potency [3] 7.24 µM [cytotoxic, partial curve, poor fit] | Potency [5] 11.5 µM [cytotoxic, partial curve, poor fit]
inactive: Potency [1] | Potency [2] | Potency [4] | Potency [6]

O=C(O)[C@H]1O[C@H](Oc2cc3oc(-c4ccccc4)cc(=O)c3c(O)c2O)[C@H](O)[C@@H](O)[C@H]1O
inactive: Potency [1] | Potency [7] | Potency [9]
active: Potency [4] 23.5 µM | Potency [5] 18.7 µM
inconclusive: Potency [2] 13.2 µM [cytotoxic, partial curve, poor fit] | Potency [3] 6.62 µM [cytotoxic, partial curve, poor fit] | Potency [6] 16.6 µM [cytotoxic, partial curve, poor fit] | Potency [8] 23.5 µM [cytotoxic, single point]

Next part:

NC(=O)c1ccc2nc(-c3ccc(Oc4ccc(Cl)cc4)cc3)[nH]c2c1
inconclusive: Potency [1] 4.18 µM [cytotoxic, partial curve, poor fit] | Potency [2] 9.35 µM [cytotoxic, partial curve] | Potency [3] 16.6 µM [cytotoxic, partial curve, poor fit] | Potency [4] 20.9 µM [cytotoxic, partial curve, poor fit] | Potency [10] 0.0047 µM [cytotoxic, full curve, poor fit] | Potency [7] 0.0662 µM [cytotoxic, full curve] | Potency [8] 33.2 µM [cytotoxic, partial curve, poor fit]
active: Potency [9] 6.62 µM
inactive: Potency [6]

CCCCOc1ccc(C(=O)Nc2ccc(F)cc2F)cc1
inconclusive: Potency [2] 0.0013 µM [rising, full curve] | Potency [10] 0.0166 µM [rising, full curve, poor fit] | Potency [6] 0.0019 µM [rising, full curve, poor fit]
active: Potency [3] 0.105 µM
inactive: Potency [1] | Potency [4]

CC(S)C(=O)NCC(=O)O (stereo not given)
inactive: Potency [4] | viability [10] 132%
inconclusive: Potency [1] 0.0037 µM [rising, full curve, poor fit] | Potency [2] 0.0118 µM [rising, full curve, poor fit] | Potency [3] 0.0187 µM [rising, full curve, poor fit] | Potency [6] 37.2 µM [cytotoxic, single point] | Potency [9] 2.96 µM [cytotoxic, full curve, poor fit]

O=C(Nc1c(Cl)cncc1Cl)c1ccc(OC(F)F)c(OCC2CC2)c1
inconclusive: Potency [2] 5.26 µM [rising, partial curve] | Potency [3] 2.96 µM [rising, full curve] | Potency [4] 0.332 µM [rising, full curve, poor fit] | Potency [7] 20.9 µM [cytotoxic, partial curve] | Potency [9] 23.5 µM [cytotoxic, single point]
inactive: Potency [1] | viability [10] 111% | Potency [6]

O=c1oc2c(O)c(O)cc3c(=O)oc4c(O)c(O)cc1c4c23
inactive: Potency [6] | Potency [8]
inconclusive: Potency [1] 33.2 µM [rising, single point] | Potency [2] 18.7 µM [cytotoxic, partial curve, poor fit] | Potency [3] 0.0083 µM [rising, full curve, poor fit] | Potency [4] 23.5 µM [cytotoxic, partial curve, poor fit] | Potency [10] 1.87 µM [cytotoxic, full curve, poor fit] | Potency [7] 16.6 µM [rising, partial curve, poor fit] | Potency [9] 0.418 µM [cytotoxic, full curve, poor fit]

Cn1cc(C=C2C(=O)Nc3cccnc32)c2ccccc21
inactive: viability [10] 130%
active: Potency [9] 10.5 µM
inconclusive: Potency [1] 0.0148 µM [rising, full curve, poor fit] | Potency [2] 20.9 µM [cytotoxic, partial curve, poor fit] | Potency [3] 3.32 µM [cytotoxic, full curve, poor fit] | Potency [4] 0.0148 µM [rising, full curve, poor fit] | Potency [6] 0.0372 µM [rising, full curve] | Potency [7] 14.8 µM [cytotoxic, partial curve]

Source: PubChem BioAssay (NCATS)
